These are yes or no findings as the source states them, for the method shown. In cells and extracts the contact can be indirect. These calls come from enrichment with a bait or labelling near it, and not all partners need be listed. Tags and fused reporters may be left off the sequences shown.

Protein sequences, listed by entry. Tags and fused reporters are not part of them.
UniProt Q9UFF9: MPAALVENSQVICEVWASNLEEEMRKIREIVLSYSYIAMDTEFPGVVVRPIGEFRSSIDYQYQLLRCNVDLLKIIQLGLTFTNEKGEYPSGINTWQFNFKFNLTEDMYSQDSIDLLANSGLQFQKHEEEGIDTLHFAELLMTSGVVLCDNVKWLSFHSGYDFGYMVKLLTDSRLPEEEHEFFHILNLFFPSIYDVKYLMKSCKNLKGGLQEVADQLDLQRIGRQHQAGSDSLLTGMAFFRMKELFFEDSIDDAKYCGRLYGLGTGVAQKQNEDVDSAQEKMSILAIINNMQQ
UniProt Q9ULM6: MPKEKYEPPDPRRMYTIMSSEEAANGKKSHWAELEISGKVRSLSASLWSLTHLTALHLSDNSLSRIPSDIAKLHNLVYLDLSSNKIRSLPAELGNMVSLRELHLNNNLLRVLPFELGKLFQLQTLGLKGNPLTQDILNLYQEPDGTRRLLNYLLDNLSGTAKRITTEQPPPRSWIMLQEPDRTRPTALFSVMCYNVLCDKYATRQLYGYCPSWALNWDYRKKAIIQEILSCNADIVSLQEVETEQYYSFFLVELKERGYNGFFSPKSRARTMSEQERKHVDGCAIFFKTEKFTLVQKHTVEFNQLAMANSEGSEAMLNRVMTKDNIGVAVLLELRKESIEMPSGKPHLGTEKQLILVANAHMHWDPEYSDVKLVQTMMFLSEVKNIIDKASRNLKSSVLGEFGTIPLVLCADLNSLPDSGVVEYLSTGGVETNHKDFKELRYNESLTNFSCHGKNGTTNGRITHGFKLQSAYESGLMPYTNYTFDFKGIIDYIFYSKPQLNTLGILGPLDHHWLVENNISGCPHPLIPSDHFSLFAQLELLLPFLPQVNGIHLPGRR
UniProt Q9UIV1: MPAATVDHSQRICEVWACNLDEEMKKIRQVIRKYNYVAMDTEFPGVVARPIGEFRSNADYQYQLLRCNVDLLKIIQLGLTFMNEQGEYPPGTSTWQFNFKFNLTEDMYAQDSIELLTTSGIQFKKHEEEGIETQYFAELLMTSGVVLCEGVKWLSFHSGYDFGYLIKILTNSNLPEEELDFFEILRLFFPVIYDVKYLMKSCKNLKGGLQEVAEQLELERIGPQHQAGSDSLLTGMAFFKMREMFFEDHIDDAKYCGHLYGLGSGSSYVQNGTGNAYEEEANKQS

In paper PMC9166816 one finds binding data, which are given here for three substances.

This experiment deals with T1, FLAG and HA-tagged RNF219 (FHA-RNF219), stably expressed in HeLa S3 cells (human) (UniProt Q5W0B1).
T1 sequence: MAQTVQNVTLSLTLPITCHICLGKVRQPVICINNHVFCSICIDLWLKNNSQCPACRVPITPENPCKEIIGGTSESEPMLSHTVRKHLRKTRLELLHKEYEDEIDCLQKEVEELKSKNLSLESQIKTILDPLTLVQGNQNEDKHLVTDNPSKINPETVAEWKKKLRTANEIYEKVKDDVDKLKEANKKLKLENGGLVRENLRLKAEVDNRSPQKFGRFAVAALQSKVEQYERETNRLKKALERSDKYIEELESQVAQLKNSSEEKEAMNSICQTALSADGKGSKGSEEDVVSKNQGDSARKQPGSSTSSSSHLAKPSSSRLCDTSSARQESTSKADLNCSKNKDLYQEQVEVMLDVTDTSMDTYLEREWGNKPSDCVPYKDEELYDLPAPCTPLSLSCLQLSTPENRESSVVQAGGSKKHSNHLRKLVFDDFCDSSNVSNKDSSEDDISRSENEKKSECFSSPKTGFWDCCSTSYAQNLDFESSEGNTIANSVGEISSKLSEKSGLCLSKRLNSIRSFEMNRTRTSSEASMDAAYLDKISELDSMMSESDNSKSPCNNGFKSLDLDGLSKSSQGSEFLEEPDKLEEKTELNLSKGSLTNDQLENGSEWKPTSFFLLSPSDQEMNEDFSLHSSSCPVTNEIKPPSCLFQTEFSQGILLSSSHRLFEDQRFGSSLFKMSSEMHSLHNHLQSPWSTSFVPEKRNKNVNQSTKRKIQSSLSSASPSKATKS
In words: affinity purification with mass spectrometry; two-step FLAG and HA affinity chromatography from Dignam S100 cytoplasmic extracts of HeLa S3 cells stably expressing FHA-RNF219; bands of SDS-PAGE analysed by tandem mass spectrometry; non-transduced HeLa S3 as mock.
As to “CNOT8 (CAF1B), CCR4-NOT deadenylase subunit (from UniProt Q9UFF9 1-292)”, the binding result was “binds”.

“CNOT6 (CCR4a), CCR4-NOT deadenylase subunit (from UniProt Q9ULM6 1-557)”: the binding entry is reported as “binds”.

“CNOT7 (CAF1A), CCR4-NOT deadenylase subunit (from UniProt Q9UIV1 1-285)”: the binding entry is given as “binds”.
